The text below walks through data of article PMC11867973.

Protein sequences, listed by entry. Tags and fused reporters are not part of them.
UniProt Q03135: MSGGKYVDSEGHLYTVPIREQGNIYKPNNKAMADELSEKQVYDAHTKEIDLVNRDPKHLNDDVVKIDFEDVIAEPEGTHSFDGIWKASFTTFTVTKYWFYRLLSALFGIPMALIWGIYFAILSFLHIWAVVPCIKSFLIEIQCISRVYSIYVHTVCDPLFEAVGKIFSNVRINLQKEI

For the assay, the target named is epithelial growth factor receptor (human (endogenous in JHOS2)) (UniProt P00533). Kind of assay: co-IP; JHOS2 cell lysate (Triton X-100 lysis buffer: 50 mM Tris-HCl pH 7.5, 10% glycerol, 150 mM NaCl, 1 mM EDTA, 1% Triton X-100, 50 mM NaF) incubated overnight at 4 °C with anti-EGFR antibody, human IgG1 isotype control as control; protein A agarose beads 1 h at 4 °C; immunoblot for CAV1.

No constants are given. Whether binding was seen depends on the method and setting. Binding seen in cells or lysates may run through a third protein. Some results given as binding are weak or reduced against the parent protein; the word gives no strength.

In the case of caveolin 1 (from UniProt Q03135 1-178), the binding entry is “binds”.
